# Patent publication US20240317873A1 (CITY OF HOPE, published 2024)
# These are yes or no findings as the source states them, for the method shown. Some results given as binding are weak or reduced against the parent protein; the word gives no strength.
# Assays:
# [1] = molecular target: cynomolgus monkey HVEM on PBMCs (cynomolgus monkey); test: mass cytometry (CyTOF), 166Er-conjugated antibody on cynomolgus PBMCs
# [2] = molecular target: cynomolgus monkey HVEM on PBMCs (cynomolgus monkey); test: mass cytometry (CyTOF) with 166Er-conjugated antibody on cynomolgus monkey total PBMCs, gated on B, NK, monocytes, CD4 T and CD8 T cells; no negative control antibody shown
# [3] = molecular target: cynomolgus monkey HVEM on PBMCs (cynomolgus monkey); test: mass cytometry (CyTOF), CD14 cells gated in total cynomolgus monkey PBMCs
# [4] = molecular target: cynomolgus monkey HVEM on PBMCs (cynomolgus monkey); test: mass cytometry (CyTOF), NK cells gated in total cynomolgus monkey PBMCs
# [5] = molecular target: cynomolgus monkey HVEM on PBMCs (cynomolgus monkey); test: mass cytometry (CyTOF), metal-conjugated antibody on cynomolgus PBMCs
binding [1],binding [2],binding [3],binding [4],binding [5],Binder
binds,binds,–,–,–,"anti-HVEM antibody clone 17 (antibody, human IgG1, kappa, V domains shown, also called HVEM17; HVEM-17) VH: QIQLVQSGPELKKPGEPVKISCRASGYTLTNFGMNWVKQAPGKGLKWMGWINTYTGEPTYADDFKGRFAFSLETSASTAYLQINNLKNEDTATYFCARSFYGNEHYWGQGTSVTVSS VL: QIVLTQSPAIMSASPGEKVTLTCSASSSVSSSYLFWYQQKPGSSPKLWIYSTSNLASGVPARFSGHGSGTSYSLTISSMEAEDAASYFCHQWSSYPYTFGGGTKLEIKR"
binds,binds,–,–,–,"anti-HVEM antibody clone 22 (antibody, human IgG1, kappa, V domains shown, also called HVEM22; HVEM-22) VH: QVQLQQSGAELVRPGASVTLSCKTSGYTFIHYEIHWVKQSPVHGLEWIGAIDPETGGTADNQKFKDKVTLTADKSSNTAYMDLRSLTSEDSAVYYCTRGDWVFAYWGQGTLVTVSA VL: DVVMTQTPLSLPVSLGDQASISCRSSQSPLHSNGNTYLDWYLQKPGQSPKLLIYKVSNRFSGVPDRFSGSGSGTDFTLKISRVEAEDLGIYFCSQTTHVPPTFGGGTKLEIKR"
–,–,binds,binds,binds,"mcHVEM13 IgG (clone 13) (antibody, V domains shown, Murine chimeric IgG; The constant region of the tested IgG is not spelled out; Metal-conjugated in mass cytometry; also called anti-HVEM13; aHVEM13) VH: QIQLVQSGPELKKPGETVKISCKASGYILTNYGMNWVKQAPGKGLKWMGWINTYTGEPTYADAFKGRFAFSLETSASTAYLQINNLKNEDTATYFCARGYGNHWYFDYWGQGTSVTVSS VL: QIVLTQSPAILSASPGEKVTMTCSASSSVSYMHWYQRKSGTSPKRWIYDTSKLASGVPARFSGSGSGTSYSLTISSMEAEDAATYYCQQWTSDPLTFGAGTKLELKR"
–,–,binds,binds,binds,"mcHVEM5 IgG (clone 5) (antibody, V domains shown) VH: DVQLVESGGGLVQPGGSRKLSCAASGFTFSSSGMQWVRQAPEKGLEWVAYISSGSSTIYYADTVKGRFTISRDNPKNTLFLQMTSLRSEDTAMYYCAKNRGYGNYAYAMDYWGQGTSVTVSS VL: DIVMTQSQKFMSTSVGDRVSVTCKASQNVDTYVAWYQQKPGQSPKALIYSASYRYSGVPDRFTGSGSGTDFTLTISNVQSEDLAEYFCQQYNNYPLTFGAGTKLNLKR"
